Source: PMC10236072, “Microwave-assisted synthesis of [^52Mn]Mn-porphyrins: Applications in cell and liposome radiolabelling” (Nuclear Medicine and Biology, 2022)

Experiment: Liposome radiolabelling with size exclusion purification
Settings: incubated 30 min at 50 °C, G-25 size exclusion, n = 3

SMILES: [Cl][52Mn][Cl] [Buffered ^52Mn, [^52Mn]MnCl2]
- liposome labelling efficiency (% activity eluting with the liposomes) (listed as free ^52Mn): 0.4 ± 0.1%
- liposome labelling efficiency (% activity eluting with the liposomes) (listed as unchelated ^52Mn): unable to label
